The supplement of paper PMC8728848
The list shows a part of the results.

Key:
Test in all cases: glycan array binding signal (z-score within array); higher = stronger binding
Conditions in all cases: glycan notation: IUPAC condensed, linker removed
[1] = molecular target: Gal(b1-4)GlcNAc(b1-2)Man(a1-3)[Gal(b1-4)GlcNAc(b1-2)Man(a1-6)]Man(b1-4)GlcNAc(b1-4)[Fuc(a1-6)]GlcNAc
Summary of the method: (§1)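 Glycan array data came from 3228 arrays in the Consortium for Functional Glycomics database, and only arrays with an available protein sequence were kept. Glycan names were put into IUPAC-condensed notation, and columns mapping to the same glycan were averaged. The binding signal is a within-array Z-score, averaged across arrays of one protein sequence run at different concentrations or buffers and across linkers. A negative Z-score can be read as non-binding.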

[2] = molecular target: Gal(b1-4)GlcNAc(b1-2)Man(a1-3)[Gal(b1-4)GlcNAc(b1-2)Man(a1-6)][Gal(b1-4)GlcNAc(b1-4)]Man(b1-4)GlcNAc(b1-4)[Fuc(a1-6)]GlcNAc
Summary of the method: as §1

[3] = molecular target: Gal(b1-4)GlcNAc(b1-2)Man(a1-3)[Gal(b1-4)GlcNAc(b1-2)Man(a1-6)][GlcNAc(b1-4)]Man(b1-4)GlcNAc(b1-4)[Fuc(a1-6)]GlcNAc
Summary of the method: as §1

[4] = molecular target: Gal(b1-4)GlcNAc(b1-2)Man(a1-3)[GlcNAc(b1-2)Man(a1-6)]Man(b1-4)GlcNAc(b1-4)GlcNAc
Summary of the method: as §1

[5] = molecular target: Gal(b1-4)GlcNAc(b1-2)Man(a1-3)[GlcNAc(b1-4)][Gal(b1-4)GlcNAc(b1-2)Man(a1-6)]Man(b1-4)GlcNAc(b1-4)GlcNAc
Summary of the method: as §1

[6] = molecular target: Gal(b1-4)GlcNAc(b1-2)Man(a1-3)[Man(a1-6)]Man(b1-4)GlcNAc(b1-4)GlcNAc
Summary of the method: as §1

[7] = molecular target: Gal(b1-4)GlcNAc(b1-2)Man(a1-6)Man(b1-4)GlcNAc(b1-4)GlcNAc
Summary of the method: as §1

[8] = molecular target: Gal(b1-4)GlcNAc(b1-2)Man(a1-6)[GlcNAc(b1-2)Man(a1-3)]Man(b1-4)GlcNAc(b1-4)GlcNAc
Summary of the method: as §1

[9] = molecular target: Gal(b1-4)GlcNAc(b1-2)Man(a1-6)[Man(a1-3)]Man(b1-4)GlcNAc(b1-4)GlcNAc
Summary of the method: as §1

[10] = molecular target: Gal(b1-4)GlcNAc(b1-2)[Gal(b1-4)GlcNAc(b1-4)]Man(a1-3)[Gal(b1-4)GlcNAc(b1-2)Man(a1-6)]Man(b1-4)GlcNAc(b1-4)GlcNAc
Summary of the method: as §1

[11] = molecular target: Gal(b1-4)GlcNAc(b1-2)[Gal(b1-4)GlcNAc(b1-4)]Man(a1-3)[Gal(b1-4)GlcNAc(b1-2)[Gal(b1-4)GlcNAc(b1-6)]Man(a1-6)]Man(b1-4)GlcNAc(b1-4)GlcNAc
Summary of the method: as §1

[12] = molecular target: Gal(b1-4)GlcNAc(b1-2)[Gal(b1-4)GlcNAc(b1-4)]Man(a1-3)[GlcNAc(b1-4)][Gal(b1-4)GlcNAc(b1-2)Man(a1-6)]Man(b1-4)GlcNAc(b1-4)GlcNAc
Summary of the method: as §1

[13] = molecular target: Gal(b1-4)GlcNAc(b1-2)[Gal(b1-4)GlcNAc(b1-4)]Man(a1-3)[GlcNAc(b1-4)][Gal(b1-4)GlcNAc(b1-2)[Gal(b1-4)GlcNAc(b1-6)]Man(a1-6)]Man(b1-4)GlcNAc(b1-4)GlcNAc
Summary of the method: as §1

[14] = molecular target: Gal(b1-4)GlcNAc(b1-2)[Gal(b1-4)GlcNAc(b1-6)]Man(a1-6)[Gal(b1-4)GlcNAc(b1-2)Man(a1-3)]Man(b1-4)GlcNAc(b1-4)GlcNAc
Summary of the method: as §1

[15] = molecular target: Gal(b1-4)GlcNAc(b1-2)[Gal(b1-4)GlcNAc(b1-6)]Man(a1-6)[Gal(b1-4)GlcNAc(b1-2)Man(a1-3)]Man(b1-4)GlcNAc(b1-4)[Fuc(a1-6)]GlcNAc
Summary of the method: as §1

[16] = molecular target: Gal(b1-4)GlcNAc(b1-2)[Gal(b1-4)GlcNAc(b1-6)]Man(a1-6)[GlcNAc(b1-4)][Gal(b1-4)GlcNAc(b1-2)Man(a1-3)]Man(b1-4)GlcNAc(b1-4)GlcNAc
Summary of the method: as §1

[17] = molecular target: Gal(b1-4)GlcNAc(b1-2)[Gal(b1-4)GlcNAc(b1-6)]Man(a1-6)[GlcNAc(b1-4)][Gal(b1-4)GlcNAc(b1-2)[Gal(b1-4)GlcNAc(b1-4)]Man(a1-3)]Man(b1-4)GlcNAc(b1-4)[Fuc(a1-6)]GlcNAc
Summary of the method: as §1

[18] = molecular target: Gal(b1-4)GlcNAc(b1-3)Gal(b1-3)GalNAc
Summary of the method: as §1

[19] = molecular target: Gal(b1-4)GlcNAc(b1-3)Gal(b1-3)GlcNAc
Summary of the method: as §1

B1: B936 (Bifidobacterium sp) (protein)
chain: MKNWKKAIALVASAAALVSVAACGPSNAGGSSDSGKKTVGFVAVGPEGGFRTANEKDIQKAFEDAGFDLTYSPTQNNDQQKQIQAFNKFVNDEVDAIILSSTEDSGWDDSLKKAAEAEIPVFTVDRNVDVKDAEAKKAIVAHIGPSNVWCGEQAAEFVNKNFPDGANGFILEGPAGLSVVKDRGTGWGNKVASNVKVLESQSANWSTDEAKTVTAGLLDKYKSDNPQFIFAQNDEMGLGAAQAVDAAGLKGKVKIITIDGTKNALQALVDGDLSYVIEYNPIFGKETAQAVKDYLDGKTVEKDIEIESKTFDAASAKEALDNNTRAY
- glycan array binding signal (z-score) [1]: 0.084
- glycan array binding signal (z-score) [2]: -0.458
- glycan array binding signal (z-score) [3]: -0.66
- glycan array binding signal (z-score) [4]: 0.478
- glycan array binding signal (z-score) [5]: -0.716
- glycan array binding signal (z-score) [6]: -0.822
- glycan array binding signal (z-score) [7]: -0.795
- glycan array binding signal (z-score) [8]: 0.29
- glycan array binding signal (z-score) [9]: 0.233
- glycan array binding signal (z-score) [10]: -0.689
- glycan array binding signal (z-score) [11]: -0.107
- glycan array binding signal (z-score) [12]: -0.432
- glycan array binding signal (z-score) [13]: 1.55
- glycan array binding signal (z-score) [14]: -0.292
- glycan array binding signal (z-score) [15]: 0.232
- glycan array binding signal (z-score) [16]: -0.558
- glycan array binding signal (z-score) [17]: 0.523
- glycan array binding signal (z-score) [18]: -0.352
- glycan array binding signal (z-score) [19]: -0.603
